The text below walks through data of PMC5591878.

No constants are given. Whether binding was seen depends on the method and setting. In cells and extracts the contact can be indirect. Binding can be weak; no strength is given. Sequences can lack the tags named with a protein.

Test [1] has as its target T1, MYC::COT1, COT1 kinase with MYC tag (Neurospora crassa) (UniProt P38679).
T1 sequence: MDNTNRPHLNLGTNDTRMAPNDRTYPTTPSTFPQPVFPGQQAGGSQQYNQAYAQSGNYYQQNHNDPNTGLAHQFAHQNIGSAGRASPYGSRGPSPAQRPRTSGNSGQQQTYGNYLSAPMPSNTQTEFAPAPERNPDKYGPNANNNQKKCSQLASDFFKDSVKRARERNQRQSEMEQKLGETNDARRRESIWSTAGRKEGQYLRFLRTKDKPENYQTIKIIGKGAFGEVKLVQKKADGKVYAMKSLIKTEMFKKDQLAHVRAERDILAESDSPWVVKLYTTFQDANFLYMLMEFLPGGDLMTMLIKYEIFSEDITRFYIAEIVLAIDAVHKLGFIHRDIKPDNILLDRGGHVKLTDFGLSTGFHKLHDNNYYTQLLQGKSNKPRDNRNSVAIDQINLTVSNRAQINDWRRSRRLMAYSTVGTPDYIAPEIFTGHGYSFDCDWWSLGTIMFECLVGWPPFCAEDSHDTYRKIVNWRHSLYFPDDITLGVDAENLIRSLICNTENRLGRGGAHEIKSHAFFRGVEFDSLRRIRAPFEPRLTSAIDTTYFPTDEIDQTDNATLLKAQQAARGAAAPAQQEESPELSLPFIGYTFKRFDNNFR
Kind of test: co-IP; cleared crude N. crassa mycelial extract incubated 2 h at 4°C with anti-MYC or anti-COT1 antibodies, then with A/G PLUS-Agarose overnight at 4°C; the last two washes with 0.5 M NaCl; western blot with anti-COT1, anti-MYC or anti-GFP antibodies. Background: A western blot detects proteins with antibodies after separation by electrophoresis.

Test [2] addresses B56::GFP, PP2A regulatory subunit B56 fused to GFP (Neurospora crassa). Kind of test: co-IP; crude N. crassa mycelial extract incubated overnight at 4°C with GFP-Trap magnetic beads; the last two washes with 0.5 M NaCl; western blot with anti-MYC antibodies.
Test [3] has as its target RGB1::GFP, PP2A regulatory subunit RGB1 fused to GFP (Neurospora crassa). The test is described as above.

As to “B56::GFP, PP2A regulatory subunit B56 fused to GFP (Neurospora crassa)”, the binding entry in test [1] is on record as “binds”.
Same read-out and setting: the same measure for “RGB1::GFP, PP2A regulatory subunit RGB1 fused to GFP (Neurospora crassa)”: “binds”.

B1: MYC::COT1, COT1 kinase with MYC tag (enzyme, UniProt P38679 1-598)
chain: MDNTNRPHLNLGTNDTRMAPNDRTYPTTPSTFPQPVFPGQQAGGSQQYNQAYAQSGNYYQQNHNDPNTGLAHQFAHQNIGSAGRASPYGSRGPSPAQRPRTSGNSGQQQTYGNYLSAPMPSNTQTEFAPAPERNPDKYGPNANNNQKKCSQLASDFFKDSVKRARERNQRQSEMEQKLGETNDARRRESIWSTAGRKEGQYLRFLRTKDKPENYQTIKIIGKGAFGEVKLVQKKADGKVYAMKSLIKTEMFKKDQLAHVRAERDILAESDSPWVVKLYTTFQDANFLYMLMEFLPGGDLMTMLIKYEIFSEDITRFYIAEIVLAIDAVHKLGFIHRDIKPDNILLDRGGHVKLTDFGLSTGFHKLHDNNYYTQLLQGKSNKPRDNRNSVAIDQINLTVSNRAQINDWRRSRRLMAYSTVGTPDYIAPEIFTGHGYSFDCDWWSLGTIMFECLVGWPPFCAEDSHDTYRKIVNWRHSLYFPDDITLGVDAENLIRSLICNTENRLGRGGAHEIKSHAFFRGVEFDSLRRIRAPFEPRLTSAIDTTYFPTDEIDQTDNATLLKAQQAARGAAAPAQQEESPELSLPFIGYTFKRFDNNFR
Consider B1, for which the binding entry is listed as “binds weakly” in test [2] and “binds” in test [3].
